The source of these data is paper PMC5442318, “Hundreds of dual-stage antimalarial molecules discovered by a functional gametocyte screen” (Nature Communications, 2017).

In the series the test system is HepG2 cells. In words: HepG2 cytotoxicity assay. The format is cell-based. Particulars: HepG2 TOX50 vs Pf FGAA IC50. The gist of the method:
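Post-incubation CellTiter-Glo luminescence; 30 min RT equilibration, 10 min RT stabilization before reading.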
For the compound `CN(/N=C/C=C/c1ccc(Cl)cc1)c1nc(NCCc2ccc(O)cc2)nc(N2CCNCC2)n1` [TCMDC-138546], the Selectivity ratio amounted to 6.73.
For the compound `CN1CCN(CCCNCc2cccc(Nc3nccc(Nc4ccc(Oc5ccccc5)cc4)n3)c2)CC1` [TCMDC-138616], the Selectivity ratio amounted to 4.77.
`Cl.O=C(NCCCCN1CCC(c2ccc3c(c2O)CCCC3)CC1)c1ccc(NC(=O)c2ccc(Cl)cc2)cc1` [TCMDC-138645]: the Selectivity ratio is recorded as 2.55.
As for `CC(C)(C)c1ccc(CNCCOc2ccc(Nc3nnc(-c4ccc(-c5ncc[nH]5)cc4)o3)c3ccccc23)cc1.O=C(O)C(F)(F)F` [TCMDC-138667], the Selectivity ratio came out at 9.58.
To `C=CCC1OC(=O)c2cc(OC)cc(OC)c21` (stereo not drawn) [TCMDC-138677] belongs 6.36; to `CCc1ccc(C2CCN(CCCCNC(=O)c3ccc(NC(=O)c4ccc(Cl)cc4)cc3)CC2)c(OCCO)c1` [TCMDC-138703], 2.38; to `COc1cc2nc(N3CCC(CNC(=O)c4ccc(-c5ccc(C(F)(F)F)cc5)cc4)CC3)nc(N)c2cc1OC` [TCMDC-138716], 5.79.
To `COc1cc2nc(N3CCC(CNC(=O)c4ccc(-c5ccc(Cl)cc5)cc4)CC3)nc(N)c2cc1OC` [TCMDC-138718] belongs 4.74; to `COC(=O)c1ccc(-c2ccc(C(=O)NCC3CCN(c4nc(N)c5cc(OC)c(OC)cc5n4)CC3)cc2)cc1` [TCMDC-138721], 6.71.
As for `COc1cc2nc(N3CCC(CNC(=O)c4ccc(-c5ccc(-c6noc(C)n6)cc5)cc4)CC3)nc(N)c2cc1OC` [TCMDC-138754], the figure is 4.67.
For the compound `COc1cc2nc(N3CCC(CNCc4ccc(-c5ccc(C(F)(F)F)cc5)cc4)CC3)nc(N)c2cc1OC` [TCMDC-138757], the Selectivity ratio came to 14.62.
In the case of `O=C(NCCCCN1CCC(c2ccc3c(c2OCCN2CCCC2)CCCC3)CC1)c1ccc(-c2ccc(C(F)(F)F)cc2)cc1` [TCMDC-138768], the Selectivity ratio worked out at 2.72.
Regarding `O=C(Nc1ccc(-c2ccccc2)c(OCCN2CCNCC2)c1)c1ccc(-c2ccc(Cl)cc2)cc1` [TCMDC-138818], the Selectivity ratio was found to be 3.60.
With `O=C(NC1CCN(CCN2CCC(c3c[nH]c4ccccc34)CC2)CC1)c1ccc(-c2ccc(C(F)(F)F)cc2)cc1` [TCMDC-138845], the Selectivity ratio came out at 2.59.
As for `CC(C)Cn1cc(C2CCN(CCN3CCC(CNC(=O)c4ccc(-c5ccc(C#N)cc5)cc4)CC3)CC2)c2ccccc21` [TCMDC-138849], the figure is 4.67; as for `CC(C)Cn1cc(C2CCN(CCN3CCC(CNC(=O)c4ccc(-c5ccc(C(F)(F)F)cc5)cc4)CC3)CC2)c2ccccc21` [TCMDC-138852], 5.47.
Consider `O=C(NCC1CCN(CCN2CCC(c3cn(CCO)c4ccccc34)CC2)CC1)c1ccc(-c2ccc(C(F)(F)F)cc2)cc1` [TCMDC-138856], for which the Selectivity ratio amounted to 1.83.
To `COc1c(C2CCN(CCN3CCC(CNC(=O)c4ccc(-c5ccc(C#N)cc5)cc4)CC3)CC2)ccc2c1CCCC2` [TCMDC-138859] belongs 2.35; to `O=C(O)C(F)(F)F.O=S(=O)(c1ccccc1)n1ccc2cc(Nc3ncnc4cc(C#C[C@H]5CCCN5)sc34)ccc21` [TCMDC-138913], 4.71.
To `CC1(C)CC(NCCCCCCCOc2ccc(OCc3ccccc3)cc2)CC(C)(C)N1.Cl` [TCMDC-138958] belongs 2.23; to `Cl.Clc1ccc(OCCC2CCN(CCCCCCCN3CCC(CCOc4ccc(Cl)c(Cl)c4)CC3)CC2)cc1Cl` [TCMDC-138967], 3.17.
In the case of `CCN1CCC2(c3cccc(OC)c3)Cc3nc4ccccc4c(-c4ccccc4)c3CC2C1` (stereo not drawn) [TCMDC-138968], the Selectivity ratio turned out to be 23.25.
In the case of `COc1ccc(NC(=O)c2ccc(OCCCCCCCOc3ccc(C(=O)Nc4ccc(OC)c(N5CCN(C)CC5)c4)cc3)cc2)cc1N1CCN(C)CC1.O=C(O)C(=O)O` [TCMDC-139007], the Selectivity ratio is on record as 3.14.
Turning to `COc1ccc(NC(=O)c2cccc(Br)c2)cc1N1CCN(CCCCCCCN2CCN(c3cc(NC(=O)c4cccc(Br)c4)ccc3OC)CC2)CC1.Cl` [TCMDC-139020], the Selectivity ratio is 5.68.
In the case of `Oc1ccc2[nH]cc(C3CCN(CCCNCc4ccc(-c5ccccc5)cc4)CC3)c2c1` [TCMDC-139047], the Selectivity ratio amounted to 3.91.
As to `Cl.Nc1c2c(nc3ccc(NC(=O)CCCCCCc4ccccc4)cc13)CCCC2` [TCMDC-139056], the Selectivity ratio stood at 2.28.
With `COC(=O)c1ccc(-c2ccc(-c3cccnc3)cc2C)cc1` [TCMDC-139074], the Selectivity ratio was found to be 6.20.
For the compound `c1ccc(C23N=C(Nc4nc5ccccc5[nH]4)NC2(c2ccccc2)NC(Nc2nc4ccccc4[nH]2)=N3)cc1` (stereo not drawn) [TCMDC-139082], the Selectivity ratio is 411.98.
As for `COc1cccc(C23N=C(Nc4nc5ccccc5[nH]4)NC2(c2cccc(OC)c2)NC(Nc2nc4ccccc4[nH]2)=N3)c1` (stereo not drawn) [TCMDC-139087], the figure is 437.61.
Consider `Clc1cccc(C23N=C(Nc4nc5ccccc5[nH]4)NC2(c2ccccc2)NC(Nc2nc4ccccc4[nH]2)=N3)c1` (stereo not drawn) [TCMDC-139089], for which the Selectivity ratio is 284.85.
As for `c1ccc(-c2nc(Nc3nc4ccccc4[nH]3)[nH]c2-c2ccccc2)cc1` [TCMDC-139099], the figure is 18.85; as for `Cc1cc2nc(N=C3NC4(c5ccccn5)NC(=Nc5nc6cc(C)c(C)cc6[nH]5)NC4(c4ccccn4)N3)[nH]c2cc1C.O=C(O)C(F)(F)F` (stereo not drawn) [TCMDC-139105], 6.73.
Take `C=C[C@H]1CN(CCCCCCC)CC[C@H]1CCNc1ccnc2ccc(OC)cc12` [TCMDC-139204]: the Selectivity ratio is 1.24.
To `CN1CCN(c2cc3c(cc2Cl)CCN3C(=O)Nc2ccc(NC(=O)c3ccc(C(F)(F)F)cc3)cc2)CC1.Cl` [TCMDC-139270] belongs 5.75; to `CC(NCCc1cccc(Cl)c1)C(O)c1ccc(OCCCCCCOc2ccc(C(O)C(C)NCCc3cccc(Cl)c3)cc2)cc1` (stereo not drawn) [TCMDC-139334], 2.63.
With `Cc1cc(N)c2cc(NC(=O)/C=C/c3ccc([N+](=O)[O-])cc3)ccc2n1` [TCMDC-139335], the Selectivity ratio is listed as 2.00.
To `Cc1cc(N)c2cc(NC(=O)c3cc(C(F)(F)F)cc(C(F)(F)F)c3)ccc2n1.Cl` [TCMDC-139377] belongs 3.01; to `O=C(Nc1cc(Cl)c(Cl)cc1NC(=O)c1cccc(-c2ccccc2)c1O)c1cccc(-c2ccccc2)c1O` [TCMDC-139548], 2.84; to `COc1ccc2nc(N=C3NC4(c5ccccc5)NC(=Nc5nc6ccc(OC)cc6[nH]5)NC4(c4ccccc4)N3)[nH]c2c1.O=C(O)C(F)(F)F` (stereo not drawn) [TCMDC-139632], 529.58.
In the case of `CC(Cc1ccc(CNC(=O)c2ccc(CC(C)NCCc3cccc(Cl)c3)cc2)cc1)NCCc1cccc(Cl)c1` (stereo not drawn) [TCMDC-139659], the Selectivity ratio is recorded as 2.62.
As for `CC(=O)N(Cc1ccc(CC(C)NCCc2cccc(Cl)c2)cc1)Cc1ccc(CC(C)NCCc2cccc(Cl)c2)cc1` (stereo not drawn) [TCMDC-139678], the figure is 3.52.
For `c1cc(Nc2nc(-c3ccc(-c4csc(Nc5ccncc5)n4)cc3)cs2)ccn1` [TCMDC-139725], the Selectivity ratio came to 77.95.
As for `CC(Cc1ccc(C(=O)Nc2ccc(CC(C)NCCc3cccc(Cl)c3)cc2)cc1)NCCc1ccc(C(F)(F)F)cc1` (stereo not drawn) [TCMDC-139790], the figure is 4.10; as for `CC(Cc1ccc(NS(=O)(=O)c2ccc(CC(C)NCCc3cccc(Cl)c3)cc2)cc1)NCCc1cccc(Cl)c1` (stereo not drawn) [TCMDC-139797], 2.37.
In the case of `CC(CCCCCC(=O)Nc1ccc(CC(C)NCCc2cccc(Cl)c2)cc1)NCCc1cccc(Cl)c1` (stereo not drawn) [TCMDC-139800], the Selectivity ratio stood at 1.83.
Take `CCOc1ccccc1CCNC(C)Cc1ccc(C(=O)Nc2ccc(CC(C)NCCc3cccc(Cl)c3)cc2)cc1` (stereo not drawn) [TCMDC-139805]: the Selectivity ratio came to 2.33.
As to `CC(Cc1ccc(NC(=O)c2ccc(CC(C)NCc3ccc(Cl)cc3)cc2)cc1)NCCc1cccc(Cl)c1` (stereo not drawn) [TCMDC-139810], the Selectivity ratio was 4.67.
As to `CCCCCCCN1CC[C@@H](CCCc2ccnc3ccc(OCCN4CCNCC4)cc23)[C@@H](CC)C1.Cl` [TCMDC-139817], the Selectivity ratio is on record as 2.63.
`CC(Cc1ccc(NC(=O)c2ccc(CNCCCCc3ccccc3)cc2)cc1)NCCc1cccc(Cl)c1.Cl` (stereo not drawn) [TCMDC-139866]: the Selectivity ratio was determined as 1.76.
Turning to `CC(Cc1ccc(NC(=O)c2ccc(CNCCc3ccccc3)cc2)cc1)NCCc1cccc(Cl)c1.Cl` (stereo not drawn) [TCMDC-139867], the Selectivity ratio is 2.02.
As to `CCCCCCCN1CC[C@@H](CCCc2ccnc3ccc(OC)cc23)[C@@H](CNC)C1.O=C(O)C(=O)O` [TCMDC-139875], the Selectivity ratio stood at 8.04.
For `Cc1oc(-c2ccc(Cl)cc2)cc1C(=O)NCCC1CCN(CCCCCNC(=O)/C=C/c2ccc(Cl)c(Cl)c2)CC1` [TCMDC-140009], the Selectivity ratio is listed as 1.80.
Regarding `CC(Cc1ccc(OCCCCOc2ccccc2)cc1)NCCC1CCCN1C` (stereo not drawn) [TCMDC-140017], the Selectivity ratio is listed as 5.62.
Regarding `COc1cccc(CCNC(C)Cc2ccc(OCCCCOc3ccccc3)cc2)c1` (stereo not drawn) [TCMDC-140020], the Selectivity ratio was found to be 0.97.
Consider `Nc1ccc2[nH]cc(C3CCN(CC4CCN(C(=O)/C=C/c5ccc(Cl)c(Cl)c5)CC4)CC3)c2n1` [TCMDC-140061], for which the Selectivity ratio is 3.33.
Regarding `Nc1ccc2[nH]cc(C3CCN(CCC4CCN(C(=O)/C=C/c5ccc(Cl)c(Cl)c5)CC4)CC3)c2n1` [TCMDC-140062], the Selectivity ratio is 6.29.
For `Nc1ccc2[nH]cc(C3CCN(CC4CCC(NC(=O)/C=C/c5ccc(Cl)c(Cl)c5)CC4)CC3)c2n1` (stereo not drawn) [TCMDC-140064], the Selectivity ratio is given as 18.13.
On to `O=C(/C=C/c1ccc(Cl)c(Cl)c1)N1CCC(CN2CCC(c3c[nH]c4ccncc34)CC2)CC1` [TCMDC-140074], for which the Selectivity ratio is reported as 6.11.
Regarding `CC(=O)Nc1ccc2[nH]cc(C3CCN(CC4CCN(C(=O)/C=C/c5ccc(Cl)c(Cl)c5)CC4)CC3)c2n1` [TCMDC-140112], the Selectivity ratio stood at 9.15.
For `CC(=O)Nc1ccc2[nH]cc(C3CCN(CC4CCC(NC(=O)/C=C/c5ccc(Cl)c(Cl)c5)CC4)CC3)c2n1` (stereo not drawn) [TCMDC-140114], the Selectivity ratio is given as 7.76.
